# Some of the results follow.
# B1: Loc1 (Escherichia coli) (protein)
# chain: APCALTNVGEQRGTYILKPLSMKGNLTAEKIENTGNIIECTDLQETTNAIKVHFLTQNALKFKVGSRHYIINFPFEYDGKKIELPGKSSYNLEEMLSAINFTIPYSIASVSDSSNTADIFPGTPFPLLFEIEVSSCTGNNTNCNSVRFNYNLNTILQVNLMTHHHHHH
# Tests used:
# Assay in all cases: glycan array binding signal (z-score within array); higher = stronger binding
# Details in all cases: glycan notation: IUPAC condensed, linker removed
# [1] = molecular target: Neu5Ac(a2-3)Gal(b1-4)GlcNAc(b1-6)GalNAc
# Outline: (§1)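 Arrays were curated from the Consortium for Functional Glycomics database, 3228 in total, and kept only where the protein sequence was available. Binding is expressed as a within-array Z-score. This score was averaged across arrays of the same protein sequence at different concentrations or buffers and across linkers, and negative values can be read as non-binding.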
# [2] = molecular target: Neu5Ac(a2-3)Gal(b1-4)GlcNAc(b1-6)[Gal(b1-3)]GalNAc
# Outline: as §1
# [3] = molecular target: Neu5Ac(a2-3)Gal(b1-4)GlcNAc(b1-6)[Neu5Ac(a2-3)Gal(b1-3)]GalNAc
# Outline: as §1
# [4] = molecular target: Neu5Ac(a2-3)Gal(b1-4)GlcNAc6S
# Outline: as §1
# [5] = molecular target: Neu5Ac(a2-3)Gal(b1-4)[Fuc(a1-3)]GlcNAc
# Outline: as §1
# [6] = molecular target: Neu5Ac(a2-3)Gal(b1-4)[Fuc(a1-3)]GlcNAc(b1-2)Man
# Outline: as §1
# [7] = molecular target: Neu5Ac(a2-3)Gal(b1-4)[Fuc(a1-3)]GlcNAc(b1-3)Gal
# Outline: as §1
# [8] = molecular target: Neu5Ac(a2-3)Gal(b1-4)[Fuc(a1-3)]GlcNAc(b1-3)Gal(b1-4)GlcNAc
# Outline: as §1
# [9] = molecular target: Neu5Ac(a2-3)Gal(b1-4)[Fuc(a1-3)]GlcNAc(b1-3)Gal(b1-4)[Fuc(a1-3)]GlcNAc(b1-3)Gal(b1-4)[Fuc(a1-3)]GlcNAc
# Outline: as §1
# [10] = molecular target: Neu5Ac(a2-3)Gal(b1-4)[Fuc(a1-3)]GlcNAc(b1-3)GalNAc
# Outline: as §1
# [11] = molecular target: Neu5Ac(a2-3)Gal(b1-4)[Fuc(a1-3)]GlcNAc(b1-6)[Gal(b1-3)]GalNAc
# Outline: as §1
# [12] = molecular target: Neu5Ac(a2-3)Gal(b1-4)[Fuc(a1-3)]GlcNAc(b1-6)[Neu5Ac(a2-3)Gal(b1-3)]GalNAc
# Outline: as §1
# [13] = molecular target: Neu5Ac(a2-3)Gal(b1-4)[Fuc(a1-3)]GlcNAc6S
# Outline: as §1
# [14] = molecular target: Neu5Ac(a2-3)Gal6S(b1-4)GlcNAc
# Outline: as §1
# [15] = molecular target: Neu5Ac(a2-3)Gal6S(b1-4)[Fuc(a1-3)]GlcNAc
# Outline: as §1
# Neu5Ac(a2-3)GalNAc = molecular target: Neu5Ac(a2-3)GalNAc
# Outline: as §1
# [16] = molecular target: Neu5Ac(a2-3)GalNAc(b1-4)GlcNAc
# Outline: as §1
# [17] = molecular target: Neu5Ac(a2-3)[GalNAc(b1-4)]Gal(b1-4)Glc
# Outline: as §1
# [18] = molecular target: Neu5Ac(a2-3)[GalNAc(b1-4)]Gal(b1-4)GlcNAc
# Outline: as §1
# [19] = molecular target: Neu5Ac(a2-3)[GalNAc(b1-4)]Gal(b1-4)GlcNAc(b1-3)GalNAc
# Outline: as §1
# [20] = molecular target: Neu5Ac(a2-3)[Neu5Ac(a2-6)]GalNAc
# Outline: as §1
# Neu5Ac(a2-6)Gal = molecular target: Neu5Ac(a2-6)Gal
# Outline: as §1
# [21] = molecular target: Neu5Ac(a2-6)Gal(b1-3)GlcNAc(b1-3)[Gal(b1-4)GlcNAc(b1-6)]Gal(b1-4)Glc
# Outline: as §1
# Neu5Ac(a2-6)Gal(b1-4)Glc = molecular target: Neu5Ac(a2-6)Gal(b1-4)Glc
# Outline: as §1
# [22] = molecular target: Neu5Ac(a2-6)Gal(b1-4)GlcNAc
# Outline: as §1
# [23] = molecular target: Neu5Ac(a2-6)Gal(b1-4)GlcNAc(b1-2)Man
# Outline: as §1
# [24] = molecular target: Neu5Ac(a2-6)Gal(b1-4)GlcNAc(b1-2)Man(a1-3)Man(b1-4)GlcNAc(b1-4)GlcNAc
# Outline: as §1
# [25] = molecular target: Neu5Ac(a2-6)Gal(b1-4)GlcNAc(b1-2)Man(a1-3)[Gal(b1-4)GlcNAc(b1-2)Man(a1-6)]Man(b1-4)GlcNAc(b1-4)GlcNAc
# Outline: as §1
# [26] = molecular target: Neu5Ac(a2-6)Gal(b1-4)GlcNAc(b1-2)Man(a1-3)[GlcNAc(b1-2)Man(a1-6)]Man(b1-4)GlcNAc(b1-4)GlcNAc
# Outline: as §1
# [27] = molecular target: Neu5Ac(a2-6)Gal(b1-4)GlcNAc(b1-2)Man(a1-3)[GlcNAc(b1-4)][Neu5Ac(a2-6)Gal(b1-4)GlcNAc(b1-2)Man(a1-6)]Man(b1-4)GlcNAc(b1-4)GlcNAc
# Outline: as §1
# [28] = molecular target: Neu5Ac(a2-6)Gal(b1-4)GlcNAc(b1-2)Man(a1-3)[Man(a1-6)]Man(b1-4)GlcNAc(b1-4)GlcNAc
# Outline: as §1
# [29] = molecular target: Neu5Ac(a2-6)Gal(b1-4)GlcNAc(b1-2)Man(a1-3)[Neu5Ac(a2-3)Gal(b1-4)GlcNAc(b1-2)Man(a1-6)]Man(b1-4)GlcNAc(b1-4)GlcNAc
# Outline: as §1
# [30] = molecular target: Neu5Ac(a2-6)Gal(b1-4)GlcNAc(b1-2)Man(a1-3)[Neu5Ac(a2-6)Gal(b1-4)GlcNAc(b1-2)Man(a1-6)]Man(b1-4)GlcNAc(b1-4)GlcNAc
# Outline: as §1
# [31] = molecular target: Neu5Ac(a2-6)Gal(b1-4)GlcNAc(b1-2)Man(a1-3)[Neu5Ac(a2-6)Gal(b1-4)GlcNAc(b1-2)Man(a1-6)]Man(b1-4)GlcNAc(b1-4)[Fuc(a1-6)]GlcNAc
# Outline: as §1
# [32] = molecular target: Neu5Ac(a2-6)Gal(b1-4)GlcNAc(b1-2)Man(a1-6)Man(b1-4)GlcNAc(b1-4)GlcNAc
# Outline: as §1
# [33] = molecular target: Neu5Ac(a2-6)Gal(b1-4)GlcNAc(b1-2)Man(a1-6)[Gal(b1-4)GlcNAc(b1-2)Man(a1-3)]Man(b1-4)GlcNAc(b1-4)GlcNAc
# Outline: as §1
# [34] = molecular target: Neu5Ac(a2-6)Gal(b1-4)GlcNAc(b1-2)Man(a1-6)[GlcNAc(b1-2)Man(a1-3)]Man(b1-4)GlcNAc(b1-4)GlcNAc
# Outline: as §1
# [35] = molecular target: Neu5Ac(a2-6)Gal(b1-4)GlcNAc(b1-2)Man(a1-6)[Man(a1-3)]Man(b1-4)GlcNAc(b1-4)GlcNAc
# Outline: as §1
# [36] = molecular target: Neu5Ac(a2-6)Gal(b1-4)GlcNAc(b1-2)[Neu5Ac(a2-6)Gal(b1-4)GlcNAc(b1-4)]Man(a1-3)[GlcNAc(b1-4)][Neu5Ac(a2-6)Gal(b1-4)GlcNAc(b1-2)[Neu5Ac(a2-6)Gal(b1-4)GlcNAc(b1-6)]Man(a1-6)]Man(b1-4)GlcNAc(b1-4)GlcNAc
# Outline: as §1
# [37] = molecular target: Neu5Ac(a2-6)Gal(b1-4)GlcNAc(b1-2)[Neu5Ac(a2-6)Gal(b1-4)GlcNAc(b1-4)]Man(a1-3)[GlcNAc(b1-4)][Neu5Ac(a2-6)Gal(b1-4)GlcNAc(b1-4)Man(a1-6)]Man(b1-4)GlcNAc(b1-4)GlcNAc
# Outline: as §1
# [38] = molecular target: Neu5Ac(a2-6)Gal(b1-4)GlcNAc(b1-2)[Neu5Ac(a2-6)Gal(b1-4)GlcNAc(b1-6)]Man(a1-6)[Neu5Ac(a2-6)Gal(b1-4)GlcNAc(b1-2)Man(a1-3)][GlcNAc(b1-4)]Man(b1-4)GlcNAc(b1-4)GlcNAc
# Outline: as §1
# [39] = molecular target: Neu5Ac(a2-6)Gal(b1-4)GlcNAc(b1-3)Gal(b1-3)GlcNAc
# Outline: as §1
# [40] = molecular target: Neu5Ac(a2-6)Gal(b1-4)GlcNAc(b1-3)Gal(b1-4)GlcNAc
# Outline: as §1
# [41] = molecular target: Neu5Ac(a2-6)Gal(b1-4)GlcNAc(b1-3)Gal(b1-4)GlcNAc(b1-2)Man(a1-3)[Neu5Ac(a2-6)Gal(b1-4)GlcNAc(b1-3)Gal(b1-4)GlcNAc(b1-2)Man(a1-6)]GalNAc
# Outline: as §1
# [42] = molecular target: Neu5Ac(a2-6)Gal(b1-4)GlcNAc(b1-3)Gal(b1-4)GlcNAc(b1-3)Gal(b1-4)GlcNAc
# Outline: as §1
binder,measurement,setting,value
B1,glycan array binding signal (z-score),[1],-0.819
same,glycan array binding signal (z-score),[2],0.621
same,glycan array binding signal (z-score),[3],-1.46
same,glycan array binding signal (z-score),[4],0.385
same,glycan array binding signal (z-score),[5],-0.223
same,glycan array binding signal (z-score),[6],-0.628
same,glycan array binding signal (z-score),[7],0.573
same,glycan array binding signal (z-score),[8],0.802
same,glycan array binding signal (z-score),[9],0.477
same,glycan array binding signal (z-score),[10],0.87
same,glycan array binding signal (z-score),[11],0.505
same,glycan array binding signal (z-score),[12],-0.445
same,glycan array binding signal (z-score),[13],0.57
same,glycan array binding signal (z-score),[14],0.135
same,glycan array binding signal (z-score),[15],-0.948
same,glycan array binding signal (z-score),Neu5Ac(a2-3)GalNAc,-0.556
same,glycan array binding signal (z-score),[16],-0.495
same,glycan array binding signal (z-score),[17],-1.33
same,glycan array binding signal (z-score),[18],0.303
same,glycan array binding signal (z-score),[19],1.06
same,glycan array binding signal (z-score),[20],1.35
same,glycan array binding signal (z-score),Neu5Ac(a2-6)Gal,0.088
same,glycan array binding signal (z-score),[21],-1.2
same,glycan array binding signal (z-score),Neu5Ac(a2-6)Gal(b1-4)Glc,-0.014
same,glycan array binding signal (z-score),[22],0.239
same,glycan array binding signal (z-score),[23],-1.24
same,glycan array binding signal (z-score),[24],1.52
same,glycan array binding signal (z-score),[25],-0.138
same,glycan array binding signal (z-score),[26],-0.15
same,glycan array binding signal (z-score),[27],-0.814
same,glycan array binding signal (z-score),[28],-0.169
same,glycan array binding signal (z-score),[29],0.21
same,glycan array binding signal (z-score),[30],-0.515
same,glycan array binding signal (z-score),[31],-0.229
same,glycan array binding signal (z-score),[32],0.078
same,glycan array binding signal (z-score),[33],1.7
same,glycan array binding signal (z-score),[34],1.58
same,glycan array binding signal (z-score),[35],-0.441
same,glycan array binding signal (z-score),[36],-0.632
same,glycan array binding signal (z-score),[37],-1.61
same,glycan array binding signal (z-score),[38],-0.217
same,glycan array binding signal (z-score),[39],0.195
same,glycan array binding signal (z-score),[40],-0.082
same,glycan array binding signal (z-score),[41],-0.36
same,glycan array binding signal (z-score),[42],-0.927

# A stretch of the results above, for reference:
binder,measurement,setting,value
B1,glycan array binding signal (z-score),[4],0.385
same,glycan array binding signal (z-score),[5],-0.223
same,glycan array binding signal (z-score),[6],-0.628
